From PMC8983672 come the findings set out here.

Amino acid sequences for entries named in this document (tags omitted).
UniProt P47936: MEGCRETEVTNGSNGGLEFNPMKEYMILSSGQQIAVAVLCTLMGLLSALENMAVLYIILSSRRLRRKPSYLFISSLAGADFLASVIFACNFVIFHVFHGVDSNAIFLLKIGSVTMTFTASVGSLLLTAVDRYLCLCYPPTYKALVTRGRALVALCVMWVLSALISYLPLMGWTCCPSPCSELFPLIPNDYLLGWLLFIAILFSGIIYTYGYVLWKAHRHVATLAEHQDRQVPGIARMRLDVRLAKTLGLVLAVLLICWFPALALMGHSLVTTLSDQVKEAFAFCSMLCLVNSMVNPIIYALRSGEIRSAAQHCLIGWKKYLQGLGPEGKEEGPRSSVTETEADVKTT
UniProt P52332: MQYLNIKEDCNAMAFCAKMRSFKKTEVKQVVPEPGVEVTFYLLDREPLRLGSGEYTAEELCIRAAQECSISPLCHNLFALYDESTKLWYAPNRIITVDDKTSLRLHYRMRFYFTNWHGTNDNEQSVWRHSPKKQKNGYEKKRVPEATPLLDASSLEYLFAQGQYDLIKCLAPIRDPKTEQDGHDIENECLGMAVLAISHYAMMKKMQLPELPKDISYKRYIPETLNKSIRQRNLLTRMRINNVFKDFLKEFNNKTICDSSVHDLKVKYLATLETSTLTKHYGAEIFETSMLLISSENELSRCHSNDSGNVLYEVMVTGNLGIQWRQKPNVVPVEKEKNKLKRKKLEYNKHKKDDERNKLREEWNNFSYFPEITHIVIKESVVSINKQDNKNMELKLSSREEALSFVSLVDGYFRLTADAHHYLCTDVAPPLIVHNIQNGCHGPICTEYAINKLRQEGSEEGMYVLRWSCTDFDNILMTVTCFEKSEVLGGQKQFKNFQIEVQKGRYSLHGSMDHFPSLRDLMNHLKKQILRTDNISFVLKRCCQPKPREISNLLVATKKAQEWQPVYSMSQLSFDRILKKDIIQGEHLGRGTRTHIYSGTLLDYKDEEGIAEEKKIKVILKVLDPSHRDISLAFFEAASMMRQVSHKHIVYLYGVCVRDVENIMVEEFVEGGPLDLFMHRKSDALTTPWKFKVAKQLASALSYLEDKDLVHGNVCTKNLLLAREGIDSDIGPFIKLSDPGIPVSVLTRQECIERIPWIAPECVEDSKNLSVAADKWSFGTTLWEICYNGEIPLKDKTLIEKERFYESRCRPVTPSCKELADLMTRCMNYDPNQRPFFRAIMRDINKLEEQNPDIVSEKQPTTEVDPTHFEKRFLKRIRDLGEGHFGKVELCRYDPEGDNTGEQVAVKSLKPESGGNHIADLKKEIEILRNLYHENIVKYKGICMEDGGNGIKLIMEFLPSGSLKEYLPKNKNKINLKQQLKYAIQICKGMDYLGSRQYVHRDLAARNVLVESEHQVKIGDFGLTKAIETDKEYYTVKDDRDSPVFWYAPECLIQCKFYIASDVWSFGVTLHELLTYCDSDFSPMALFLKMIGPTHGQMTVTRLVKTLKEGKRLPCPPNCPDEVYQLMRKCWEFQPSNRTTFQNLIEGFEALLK

Results are given in words; binding and its absence hold for the method and conditions named. In cells and extracts the contact can be indirect. Some binding calls cover weakened binding; strength is not graded here.

This test deals with FLAG-tagged CNR2 (cannabinoid receptor 2) from Cnr2-2×Flag-IRES-Egfp^flox/flox knock-in mice (mouse) (UniProt P47936). The experiment in a line: co-IP; lysate of Cnr2-2×Flag-IRES-Egfp^flox/flox CD8+ T cells treated with THC or DMSO for 24 h; precipitated with Flag antibody, blotted with anti-JAK1 and anti-Flag.

On to “JAK1 (from UniProt P52332 1-1153) (enzyme)”, for which the binding result is on record as “binds”.
